# According to published antibiotic growth screens (doi:10.1016/j.cell.2020.01.021):
# Only a part is listed here, and it is no random draw.
# Tested on: E. coli BW25113
# Assay: relative growth (fraction of control); higher = less inhibition
# Conditions: 50 µM
row,SMILES,relative growth
1,CN1CCN(CCCN2c3ccccc3Sc3ccc(Cl)cc32)CC1.O=S(=O)(O)CCS(=O)(=O)O,0.844
